{"sequences": {"note": "Chains of the proteins cited; added tags and fusions are not shown.", "UniProt P11798": "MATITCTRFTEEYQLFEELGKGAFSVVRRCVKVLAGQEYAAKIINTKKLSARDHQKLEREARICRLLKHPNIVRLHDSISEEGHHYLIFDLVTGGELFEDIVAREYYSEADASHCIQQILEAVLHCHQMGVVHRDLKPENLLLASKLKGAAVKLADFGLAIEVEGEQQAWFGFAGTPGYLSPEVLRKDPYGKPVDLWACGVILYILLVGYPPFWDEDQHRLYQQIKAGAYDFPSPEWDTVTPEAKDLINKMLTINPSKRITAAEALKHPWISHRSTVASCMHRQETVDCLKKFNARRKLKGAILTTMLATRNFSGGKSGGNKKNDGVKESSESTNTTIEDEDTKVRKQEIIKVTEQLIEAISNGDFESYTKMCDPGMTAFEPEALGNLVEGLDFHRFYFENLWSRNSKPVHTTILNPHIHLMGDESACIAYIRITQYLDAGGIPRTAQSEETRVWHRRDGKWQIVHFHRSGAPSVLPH", "UniProt P20357": "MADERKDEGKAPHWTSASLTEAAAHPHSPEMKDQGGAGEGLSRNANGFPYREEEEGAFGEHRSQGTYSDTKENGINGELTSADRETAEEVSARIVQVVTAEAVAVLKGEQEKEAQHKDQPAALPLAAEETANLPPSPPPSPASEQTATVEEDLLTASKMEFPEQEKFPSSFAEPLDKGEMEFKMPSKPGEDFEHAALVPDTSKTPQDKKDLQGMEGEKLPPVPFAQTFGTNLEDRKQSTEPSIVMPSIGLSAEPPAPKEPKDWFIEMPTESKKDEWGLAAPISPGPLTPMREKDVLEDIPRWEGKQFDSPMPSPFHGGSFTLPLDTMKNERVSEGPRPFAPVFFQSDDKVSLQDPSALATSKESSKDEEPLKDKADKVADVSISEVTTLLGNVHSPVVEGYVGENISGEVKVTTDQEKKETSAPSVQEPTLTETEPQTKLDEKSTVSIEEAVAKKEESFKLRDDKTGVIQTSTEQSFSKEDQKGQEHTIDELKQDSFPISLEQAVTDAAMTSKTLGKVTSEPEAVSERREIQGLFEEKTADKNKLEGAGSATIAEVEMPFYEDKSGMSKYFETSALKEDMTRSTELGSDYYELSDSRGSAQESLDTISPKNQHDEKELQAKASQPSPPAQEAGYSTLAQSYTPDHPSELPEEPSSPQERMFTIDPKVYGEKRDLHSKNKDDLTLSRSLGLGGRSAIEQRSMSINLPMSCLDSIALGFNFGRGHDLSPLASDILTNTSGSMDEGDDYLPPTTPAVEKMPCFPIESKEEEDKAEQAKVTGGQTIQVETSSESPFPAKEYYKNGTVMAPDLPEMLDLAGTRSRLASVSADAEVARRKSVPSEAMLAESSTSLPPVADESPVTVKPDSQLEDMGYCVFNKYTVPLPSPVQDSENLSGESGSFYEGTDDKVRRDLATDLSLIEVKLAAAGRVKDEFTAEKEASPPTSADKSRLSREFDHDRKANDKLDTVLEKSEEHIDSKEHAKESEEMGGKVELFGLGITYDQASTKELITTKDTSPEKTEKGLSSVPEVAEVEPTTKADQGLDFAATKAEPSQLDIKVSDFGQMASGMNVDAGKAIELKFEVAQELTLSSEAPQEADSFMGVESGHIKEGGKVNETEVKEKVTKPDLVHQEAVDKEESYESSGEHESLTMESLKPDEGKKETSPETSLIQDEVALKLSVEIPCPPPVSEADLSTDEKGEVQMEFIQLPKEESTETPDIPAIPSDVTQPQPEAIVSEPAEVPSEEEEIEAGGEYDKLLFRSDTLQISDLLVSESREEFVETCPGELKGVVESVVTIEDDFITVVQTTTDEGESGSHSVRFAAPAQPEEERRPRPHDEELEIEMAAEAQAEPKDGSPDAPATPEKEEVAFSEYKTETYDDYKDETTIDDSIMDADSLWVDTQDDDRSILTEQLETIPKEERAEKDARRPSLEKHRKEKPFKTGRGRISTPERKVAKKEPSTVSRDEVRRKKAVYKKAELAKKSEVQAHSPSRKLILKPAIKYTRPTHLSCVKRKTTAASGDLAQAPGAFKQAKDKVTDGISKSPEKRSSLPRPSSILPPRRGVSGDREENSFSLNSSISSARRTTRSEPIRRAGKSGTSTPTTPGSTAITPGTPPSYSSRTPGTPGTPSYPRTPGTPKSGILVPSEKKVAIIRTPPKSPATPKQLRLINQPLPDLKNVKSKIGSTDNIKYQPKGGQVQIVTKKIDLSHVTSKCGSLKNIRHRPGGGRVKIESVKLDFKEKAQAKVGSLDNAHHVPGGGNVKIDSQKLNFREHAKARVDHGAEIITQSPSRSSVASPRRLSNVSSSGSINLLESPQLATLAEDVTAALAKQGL"}, "source": "paper PMC8304497", "molecules": {"B1": {"name": "Neuronal cell adhesion molecule 2, isoform NCAM2.1 (protein, UniProt O35136 20-837)", "chain": "LLQVTISLSKVELSVGESKFFTCTAIGEPESIDWYNPQGEKIISTQRVMLQKEGVRSRLTIYNANIEDAGIYRCQATDAKGQTQEATVVLEIYQKLTFREVVSPQEFKQGEDAEVVCRVSSSPAPAVSWLYHNEEVTTIPDNRFAVLANNNLQILNINKSDEGIYRCEGRVEARGEIDFRDIIVIVNVPPAIMMPQKSFNATAERGEEMTLTCKASGSPDPTISWFRNGKLIEENEKYILKGSNTELTVRNIINKDGGSYVCKATNKAGEDQKQAFLQVFVQPHILQLKNETTSENGHVTLVCEAEGEPVPEITWKRAIDGVMFSEGDKSPDGRIEVKGQHGRSSLHIRDVKLSDSGRYDCEAASRIGGHQRSMHLDIEYAPKFVSNQTMYYSWEGNPINISCDVTANPPASIHWRREKLLLPAKNTTHLKTHSVGRKMILEIAPTSDNDFGRYNCTATNRIGTRFQEYILELADVPSSPHGVKIIELSQTTAKISFNKPESHGGVPIHHYQVDVKEVASETWKIVRSHGVQTMVVLSSLEPNTTYEIRVAAVNGKGQGDYSKIEIFQTLPVREPSPPSIHGQPSSGKSFKISITKQDDGGAPILEYIVKYRSKDKEDQWLEKKVQGNKDHIILEHLQWTMGYEVQITAANRLGYSEPTVYEFSMPPKPNIIKDTLFNGLGLGAIIGLGVAALLLILVVTDVSCFFIRQCGLLMCITRRMCGKKSGSSGKSKELEEGKAAYLKDGSKEPIVEMRTEDERITNHEDGSPVNEPNETTPLTEPEKLPLKEENGKEVLNAETIEIKVSNDIIQSKEDDIKA"}}, "assay_in_all_cases": "co-IP; membrane fraction of P10–15 mouse cortex and hippocampus incubated with 2 μg antibody overnight, protein G-Sepharose 2 h, washed with lysis buffer, Western blot", "key": {"[1]": {"target": "T1, Neuronal cell adhesion molecule 2, isoform NCAM2.1 (mouse (endogenous in cerebral cortex)) (UniProt O35136)", "T1 sequence": "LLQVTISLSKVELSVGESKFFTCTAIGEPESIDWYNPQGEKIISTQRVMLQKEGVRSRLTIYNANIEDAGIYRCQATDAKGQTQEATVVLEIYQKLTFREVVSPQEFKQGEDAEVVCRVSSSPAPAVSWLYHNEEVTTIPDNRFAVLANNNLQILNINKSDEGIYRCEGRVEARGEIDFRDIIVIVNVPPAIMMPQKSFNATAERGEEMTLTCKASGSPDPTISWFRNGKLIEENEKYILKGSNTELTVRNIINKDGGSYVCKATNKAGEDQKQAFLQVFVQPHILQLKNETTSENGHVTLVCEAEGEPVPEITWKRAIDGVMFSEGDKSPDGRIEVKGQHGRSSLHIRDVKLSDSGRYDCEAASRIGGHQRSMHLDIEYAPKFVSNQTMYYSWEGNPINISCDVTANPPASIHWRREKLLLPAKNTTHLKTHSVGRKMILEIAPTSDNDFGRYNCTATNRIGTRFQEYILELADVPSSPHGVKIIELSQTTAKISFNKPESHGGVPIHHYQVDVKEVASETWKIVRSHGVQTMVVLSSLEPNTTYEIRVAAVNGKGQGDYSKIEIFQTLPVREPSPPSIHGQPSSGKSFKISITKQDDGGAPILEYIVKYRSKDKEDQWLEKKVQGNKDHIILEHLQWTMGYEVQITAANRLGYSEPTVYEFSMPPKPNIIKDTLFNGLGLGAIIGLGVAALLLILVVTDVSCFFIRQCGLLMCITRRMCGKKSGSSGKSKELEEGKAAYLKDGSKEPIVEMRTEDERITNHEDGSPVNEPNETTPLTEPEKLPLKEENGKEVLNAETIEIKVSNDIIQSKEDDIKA"}, "[2]": {"target": "Calcium/calmodulin-dependent protein kinase type II alpha (mouse (endogenous in cerebral cortex)) (UniProt P11798)"}, "[3]": {"target": "Microtubule-associated protein 2 (mouse (endogenous in cerebral cortex)) (UniProt P20357)"}, "[4]": {"target": "T2, NF200 (mouse (endogenous in cortex and hippocampus)) (UniProt P19246)", "T2 sequence": "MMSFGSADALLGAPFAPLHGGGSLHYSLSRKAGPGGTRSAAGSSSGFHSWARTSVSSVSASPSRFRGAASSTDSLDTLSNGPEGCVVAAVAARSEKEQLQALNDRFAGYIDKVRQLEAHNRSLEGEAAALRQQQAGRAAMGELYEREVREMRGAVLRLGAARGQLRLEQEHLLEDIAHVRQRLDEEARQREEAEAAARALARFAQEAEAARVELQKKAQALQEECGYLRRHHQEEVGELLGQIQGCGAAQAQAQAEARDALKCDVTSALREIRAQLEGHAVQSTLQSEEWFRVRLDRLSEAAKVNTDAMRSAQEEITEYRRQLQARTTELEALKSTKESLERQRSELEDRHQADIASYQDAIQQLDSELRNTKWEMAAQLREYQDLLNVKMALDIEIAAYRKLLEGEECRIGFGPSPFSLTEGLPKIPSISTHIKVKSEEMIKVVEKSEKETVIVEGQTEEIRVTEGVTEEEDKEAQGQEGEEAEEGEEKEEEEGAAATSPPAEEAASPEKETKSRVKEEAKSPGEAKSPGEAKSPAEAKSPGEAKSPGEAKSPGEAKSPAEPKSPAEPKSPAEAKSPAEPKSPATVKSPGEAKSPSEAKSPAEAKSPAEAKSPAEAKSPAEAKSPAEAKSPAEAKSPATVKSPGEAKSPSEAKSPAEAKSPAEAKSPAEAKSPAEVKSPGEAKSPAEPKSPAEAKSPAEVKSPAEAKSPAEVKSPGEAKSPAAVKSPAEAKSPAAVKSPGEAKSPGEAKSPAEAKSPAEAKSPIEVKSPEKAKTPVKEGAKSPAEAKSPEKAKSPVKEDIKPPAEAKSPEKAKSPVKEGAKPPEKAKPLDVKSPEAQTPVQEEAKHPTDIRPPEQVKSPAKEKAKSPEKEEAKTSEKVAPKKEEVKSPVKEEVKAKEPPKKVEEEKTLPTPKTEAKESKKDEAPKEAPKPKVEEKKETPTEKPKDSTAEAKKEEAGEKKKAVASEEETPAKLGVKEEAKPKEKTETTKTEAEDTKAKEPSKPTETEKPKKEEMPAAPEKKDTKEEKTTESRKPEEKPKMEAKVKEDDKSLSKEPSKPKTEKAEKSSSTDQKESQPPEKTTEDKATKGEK"}, "[5]": {"target": "T3, Reticulon-4 (mouse (endogenous in cerebral cortex)) (UniProt Q99P72)", "T3 sequence": "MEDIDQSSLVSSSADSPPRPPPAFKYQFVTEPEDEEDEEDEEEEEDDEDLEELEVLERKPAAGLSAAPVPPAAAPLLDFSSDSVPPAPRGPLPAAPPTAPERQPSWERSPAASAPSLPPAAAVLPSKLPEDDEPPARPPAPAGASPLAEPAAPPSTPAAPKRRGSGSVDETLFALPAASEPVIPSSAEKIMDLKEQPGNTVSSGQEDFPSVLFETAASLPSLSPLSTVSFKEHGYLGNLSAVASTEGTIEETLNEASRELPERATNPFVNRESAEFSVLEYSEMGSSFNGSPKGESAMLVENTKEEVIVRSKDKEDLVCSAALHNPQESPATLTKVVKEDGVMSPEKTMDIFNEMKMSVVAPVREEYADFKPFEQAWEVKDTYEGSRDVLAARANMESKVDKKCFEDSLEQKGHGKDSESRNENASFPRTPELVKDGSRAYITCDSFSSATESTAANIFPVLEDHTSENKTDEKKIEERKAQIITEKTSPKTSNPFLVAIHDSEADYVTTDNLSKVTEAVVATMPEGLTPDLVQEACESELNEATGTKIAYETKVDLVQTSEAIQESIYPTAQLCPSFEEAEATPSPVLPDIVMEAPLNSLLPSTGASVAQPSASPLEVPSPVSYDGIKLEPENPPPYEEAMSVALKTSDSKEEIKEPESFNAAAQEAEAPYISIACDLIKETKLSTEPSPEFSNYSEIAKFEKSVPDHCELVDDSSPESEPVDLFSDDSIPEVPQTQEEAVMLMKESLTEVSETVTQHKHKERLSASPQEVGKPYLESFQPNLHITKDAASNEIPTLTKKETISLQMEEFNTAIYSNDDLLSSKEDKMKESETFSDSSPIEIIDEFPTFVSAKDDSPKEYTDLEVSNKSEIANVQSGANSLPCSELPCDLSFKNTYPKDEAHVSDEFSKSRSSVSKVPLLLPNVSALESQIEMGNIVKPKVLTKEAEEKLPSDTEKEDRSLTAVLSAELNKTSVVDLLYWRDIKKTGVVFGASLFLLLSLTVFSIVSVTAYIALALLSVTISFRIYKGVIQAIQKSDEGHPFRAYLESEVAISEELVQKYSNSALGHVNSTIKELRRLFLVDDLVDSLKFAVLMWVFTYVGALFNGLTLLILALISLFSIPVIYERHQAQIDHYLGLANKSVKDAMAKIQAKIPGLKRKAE"}}, "note": "These are yes or no findings as the source states them, for the method shown. Binding seen in cells or lysates may run through a third protein. Some entries that bind do so weakly or less than the wild type.", "data": [{"molecule": "Microtubule-associated protein 2 (from UniProt P20357 1-1828)", "values": [{"measurement": "binding", "setting": "[1]", "result": "binds"}]}, {"molecule": "B1", "values": [{"measurement": "binding", "setting": "[2]", "result": "binds"}, {"measurement": "binding", "setting": "[3]", "result": "binds"}, {"measurement": "binding", "setting": "[4]", "result": "binds"}, {"measurement": "binding", "setting": "[5]", "result": "binds"}]}]}
